From the supplement of paper PMC3334620
The full ranking holds about 33,000 sequences; the median of “E-score (-0.5 to 0.5)” is about -8e-05, and the highest 2% start at about 0.23. Some of the results follow.

These sequences were tested against T1, Nrg2 (UniProt P38082) (assay: PBM E-score (8-mer binding enrichment) (E-score (-0.5 to 0.5)); higher = stronger / more preferred TF binding). Settings: protein concentration: 100 nM; construct: GST-full length.
T1 sequence: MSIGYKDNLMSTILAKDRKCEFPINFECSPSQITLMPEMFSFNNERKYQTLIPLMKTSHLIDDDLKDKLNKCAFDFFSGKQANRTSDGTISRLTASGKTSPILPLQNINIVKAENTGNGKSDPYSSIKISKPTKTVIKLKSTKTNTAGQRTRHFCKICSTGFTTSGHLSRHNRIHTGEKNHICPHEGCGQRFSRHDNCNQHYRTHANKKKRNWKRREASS
Procedure, shortened: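 Using PURExpress in vitro transcription/translation, GST-tagged yeast transcription factors were made in full-length or DNA-binding-domain form. These were applied at about 100-200 nM to double-stranded universal all-10-mer Agilent arrays, and bound protein was detected with fluorescent anti-GST. Scans were normalised with masliner before the Universal PBM Analysis Suite assigned E-scores to ungapped eight-base words pooled with their reverse complements.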

Row | Sequence | PBM E-score
1 | CAAAACAC | 0.0285
2 | TAACTACA | 0.0268
3 | ACGTAGAG | -0.195
4 | CTGTATGA | -0.113
5 | AACGAGCT | 0.0638
6 | AAACCTTC | -0.153
7 | CCTCAGCG | -0.0567
8 | GATTGTTA | 0.116
9 | CCAGTAGC | -0.0699
10 | CCCGACTC | -0.0653
11 | ATGAACTG | 0.173
12 | AGTGGAAG | -0.194
13 | CAGACATG | 0.00828
14 | AGCTACCC | -0.0919
15 | ATTATGCC | 0.115
16 | ACAACCGA | 0.136
17 | CGACCGTC | -0.108
18 | AGCGCGCG | 0.274
19 | AATTCACT | 0.0634
20 | ATCCTCAC | 0.0624
21 | ATTGAAGA | -0.0095
22 | ACAGTCCT | -0.185
23 | AAACCTCG | -0.0755
24 | AGTGAGAA | 0.155
25 | AGTACCAT | -0.167

Retrieved one by one from the entries so far (3):
Row | Sequence | PBM E-score
5 | AACGAGCT | 0.0638
17 | CGACCGTC | -0.108
18 | AGCGCGCG | 0.274

The list continues.

Row | Sequence | PBM E-score
26 | GCTCGCTA | -0.0335
27 | ATAGGAGG | -0.285
28 | TGGAATAA | 0.00839
29 | ACCACACT | -0.0284
30 | TTACCCAA | -0.0831
31 | CGGTATCC | -0.0279
32 | ATAAATAT | 0.245
33 | CTGAGGGC | -0.146
34 | ATAATTGA | 0.276
35 | GACGAAGA | 0.0138
36 | TAGCTTGA | -0.168
37 | TAGTGCGA | 0.0178
38 | CCCTCGCG | 0.136
39 | CGTGTAAC | -0.148
40 | ATCCCTCC | -0.147
41 | TCGCACCA | 0.0204
42 | CGCACGGA | 0.0769
43 | GAGATTAC | 0.0388
44 | CTACACCC | 0.0683
45 | CGGTCGCC | -0.0266
46 | GCGGCCAC | -0.0725
47 | CTAGTTTC | 0.17
48 | TCCCCGGA | 0.0204
49 | GAACCGCC | -0.146
50 | CAGGGGAA | 0.106

Two neighbouring records already listed, for reference:
Row | Sequence | PBM E-score
39 | CGTGTAAC | -0.148
40 | ATCCCTCC | -0.147

The list goes on:

Row | Sequence | PBM E-score
51 | CGTTCGCC | -0.0911
52 | CGTAAGGC | -0.16
53 | ACAGTGCC | 0.0305
54 | ACCTCGGC | 0.202
55 | GACTTAGC | -0.119
56 | ACTTGTAG | -0.204
57 | TCCTCGAA | 0.176
58 | GAAAATTC | 0.1
59 | ATCCGCAC | 0.029
60 | ATCTTGCC | 0.195
61 | CCATAAAG | -0.0889
62 | AGACGCAT | -0.0244
63 | GGATACAC | -0.0641
64 | CACAATCA | -0.0524
65 | ACTGACTG | -0.0997
66 | TAATACTA | 0.202
67 | AACGGACA | 0.0563
68 | AGGCGTAC | -0.22
69 | ACGGAGCC | -0.28
70 | CCTAATGC | -0.177
71 | ATCTAAAA | -0.0295
72 | CTGATAAC | 0.0011
73 | CGCACTCC | -0.129
74 | AATTTTTC | -0.0131
75 | ACCCGAAT | 0.1

Row | Sequence | PBM E-score
76 | AGATTGAT | -0.17
77 | AAGACGTG | -0.0832
78 | GCATAGTA | 0.23
79 | CATGTTGA | 0.258
80 | GCCGTCTA | -0.0529
81 | ATCTGTCG | 0.0697
82 | CCATGCTA | -0.0481
83 | ATCCCTTA | 0.0558
84 | TCTTCAAA | 0.0271
85 | GCCTACCA | -0.197
86 | CACACCTG | -0.124
87 | ATAATGAG | 0.0733
88 | AGGCACGG | 0.0978
89 | CTCAGTTC | -0.104
90 | AAACTGAT | 0.0991
91 | GTAACAAC | -0.099
92 | AAGTCTTA | -0.202
93 | GCTAACAA | -0.0183
94 | GGCGTGCA | -0.105
95 | TACACACA | 0.0525
96 | CTAACAAA | 0.0682
97 | CTCATCGC | -0.0484
98 | CGTCGATC | 0.0789
99 | ACCATAGA | -0.105
100 | GTGCATGA | 0.00511

Row | Sequence | PBM E-score
101 | AACCAGTA | 0.124
102 | CCTGTGCG | 0.129
103 | CAACTTAA | -0.0495
104 | CGATGTTA | 0.0876
105 | AGTAGAAA | 0.0951
106 | CACTTACC | 0.15
107 | GAAGTAAC | 0.207
108 | TGCCATAA | 0.035
109 | CGGGGAAA | 0.104
110 | GTGCAACA | -0.0879
111 | TACCCTAA | 0.107
112 | AGGTTTAT | 0.186
113 | GTGTGATA | 0.114
114 | AGGGTACC | 0.0534
115 | GCGACATA | 0.05
116 | AAGATGGC | 0.033
117 | GATATCCC | 0.105
118 | AATTCACC | 0.0809
119 | CAATGTGC | -0.0389
120 | GATATGCA | 0.0698
121 | ACGGATCC | 0.143
122 | ATGATCGA | -0.0111
123 | GTCTGGAA | -0.183
124 | GACGTTAC | -0.0985
125 | AAGGAGCG | -0.226

Row | Sequence | PBM E-score
126 | GGCACAAC | -0.0416
127 | CAAAGGTA | -0.0799
128 | TGTTCCAA | -0.115
129 | ACTACTGC | -0.0101
130 | CCTCACAC | -0.145
131 | CCAACTCA | 0.0337
132 | ACATTGAC | 0.0449
133 | GCATGAGA | 0.193
134 | GTTCCTAA | -0.0149
135 | CGAGCTCC | 0.12
136 | AGGGGTGA | -0.0715
137 | CAAACGGG | 0.114
138 | CTCGCTGA | 0.0688
139 | GCGTAAAC | -0.0492
140 | CCGCAGCG | -0.126
141 | GAACCGTA | -0.225
142 | ATAAAACG | 0.128
143 | ACTTTGGC | -0.0761
144 | ACTATCGA | 0.0247
145 | ATCCGTGG | -0.118
146 | AGGCGACA | -0.111
147 | ATACATTA | 0.00796
148 | GATATGGA | 0.259
149 | AGGTTCGG | -0.286
150 | GCATTTCA | 0.0344

Row | Sequence | PBM E-score
151 | AATCCGAA | -0.0278
152 | CAGGGAAA | 0.112
153 | AAGCTGGC | -0.0595
154 | AGACCGGC | -0.309
155 | AATGTCCC | 0.00384
156 | CACATCTA | 0.0921
157 | GTACCCAA | -0.0929
158 | CTGCCCTC | -0.193
159 | CAGAACCC | 0.0304
160 | AGTATACC | 0.0754
161 | GACTAGTC | -0.183
162 | GCGACCAC | -0.0633
163 | AGAACCGA | -0.109
164 | CAGGTGCG | -0.0105
165 | AGGTCCCC | 0.0498
166 | AGTCGTGC | -0.136
167 | ATGTTAGC | -0.135
168 | AGTTGCAC | -0.0406
169 | TAGTTAGA | -0.00057
170 | ACTCAATC | 0.0391
171 | TATGGACA | 0.0876
172 | AGAACGGC | 0.122
